# Several values for one entry are separate records, joined by “and”; a condition that tells them apart may be missing. Equal values may be shown once. At least one read-out could not be matched to a standard name with certainty.
# What was measured:
# ISC-enriched organoids [1] = assay: Primary screen, 384-well 2.5-D organoid differentiation (ENR+CD, 6 days, Target Selective Inhibitor Library, vs whole-plate median): ATP (CellTiter-Glo 3D, CTG); conditions: strictly standardized mean difference of replicates, four lines per treatment = four doses (dose not given), column head inferred
# ISC-enriched organoids [2] = assay: Primary screen, 384-well 2.5-D organoid differentiation (ENR+CD, 6 days): carbachol-induced lysozyme secretion (LYZ.S); assay type: cell-based, murine; conditions: strictly standardized mean difference of replicates, four lines per treatment = four doses (dose not given), column head inferred
# Description: High-throughput screening.
smiles,measurement,setting,value
Cc1cc2c(C(C)C)c(O)c(O)c(C=O)c2c(O)c1-c1c(C)cc2c(C(C)C)c(O)c(O)c(C=O)c2c1O [AT101],SSMD.CTG,ISC-enriched organoids [1],0.041 and −0.610
same,SSMD.LYZ.S,ISC-enriched organoids [2],0.018 and −0.080

# — patent US20230398130A1, “METHODS AND COMPOSITIONS FOR DIFFERENTIATING STEM CELLS” (Massachusetts Institute of Technology, priority 2020, published 2023)
